{"source": "PubChem BioAssay AID2685", "about": "(National Center for Advancing Translational Sciences (NCATS), 2010)", "note": "The campaign covered roughly 320,000 compounds. About 2,100 (0.66%) were called active. The shares of active, inactive and inconclusive entries below differ from those in the screen. The call rests on the fitted dose curve; in most records, active means well fitted inhibition curve with a large enough effect in the signal ratio, with a control signal flat (not every such curve was filed as active); inconclusive means small, poorly fitted or top-dose-only effect, or effect the other way, or a change in a side signal; inactive means flat fitted curve, though single readings scatter; the % refers to the signal ratio. A potency beside an inconclusive call is a rough fit, not a confirmed value. On the % scale 0 is the no-effect control and ±100 the full control effect; potency means the concentration at half of the fitted maximal effect.", "data": [{"test": "qHTS Assay for Lipid Storage Modulators in Drosophila S3 Cells", "conditions": "BODIPY lipid droplet fluorescence, 18-24 h, cells fed with added oleic acid; lipid storage change, negative = inhibition: at 46.1 µM (top of the series) unless noted", "outline": "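Drosophila S3 cells got compounds at several concentrations plus oleic acid (400 uM solution). Laser-scanning cytometry with 488 nm excitation read lipid droplets at 500-530 nm and cells at 575-640 nm. Percent activity was relative to 20 uM Triacsin C.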", "values": [{"smiles": "O=C(Nc1ccncc1)Nc1cc(Cl)ccc1Cl", "Potency": "inconclusive: 6.51 µM [activator, single point]"}, {"smiles": "CCc1noc(C)c1C(=O)NCCc1ccccc1", "lipid storage change, negative = inhibition": "inconclusive: 31.3%"}, {"smiles": "Cc1ccc(NC(=O)CN2CCC(NC(=O)c3ccccc3F)CC2)cc1C", "Potency": "inconclusive: 20.6 µM [activator, partial curve]"}, {"smiles": "Cc1csc(=Nc2ccc(S(=O)(=O)N3CCOCC3)cc2)n1Cc1ccco1", "lipid storage change, negative = inhibition": "inconclusive: 104%"}, {"smiles": "CCc1nc(C)cn1S(=O)(=O)c1ccc([N+](=O)[O-])cc1", "lipid storage change, negative = inhibition": "inactive: -3.24%"}, {"smiles": "Fc1cnc(N2CCc3ccccc32)nc1N1CCc2ccccc21", "lipid storage change, negative = inhibition": "inconclusive: -47.2%"}, {"smiles": "COCCCNC(=O)Cn1ccc(N)nc1=O", "lipid storage change, negative = inhibition": "inconclusive: 8.67%"}, {"smiles": "COCC(C)n1c(SCC(=O)Nc2ccc3c(c2)OCCO3)nc2ccccc2c1=O", "note": "(stereo not drawn)", "lipid storage change, negative = inhibition": "inconclusive: -8.02%"}, {"smiles": "CCn1c2ccccc2c2nnc(SCC(=O)NCCOC)nc21", "Potency": "inconclusive: 18.4 µM [activator, partial curve]"}, {"smiles": "C=CCOn1c(=O)c(=O)n(OCc2ccccc2)c2ccccc21", "lipid storage change, negative = inhibition": "inconclusive: 41.3%"}, {"smiles": "Cc1ccnc(NS(=O)(=O)c2ccccc2)c1", "lipid storage change, negative = inhibition": "inconclusive: 132%"}, {"smiles": "CC(C)(C)C(=O)Nc1ccc(N2CCCC2)cc1", "lipid storage change, negative = inhibition": "inconclusive: -10.6%"}, {"smiles": "COc1ccccc1N(CC(=O)NC1CCCC1)C(=O)CCC(=O)Nc1cc(C)on1", "lipid storage change, negative = inhibition": "inconclusive: 38.1%"}, {"smiles": "CCCC1(C(=O)O)NC(c2ccccc2O)C2C(=O)N(c3cccc(Cl)c3)C(=O)C21", "note": "(stereo not drawn)", "lipid storage change, negative = inhibition": "inconclusive: 4.84%"}, {"smiles": "C/C(=N\\NC(=O)c1cc(-c2cccnc2)nc2ccccc12)c1ccccc1O", "lipid storage change, negative = inhibition": "inconclusive: -27.6%"}, {"smiles": "Cc1ccc(C(=O)Nc2ccc(N3CCN(C)CC3)cc2)cc1C", "lipid storage change, negative = inhibition": "inactive: -16.1%"}, {"smiles": "COc1ccc(Cl)cc1NC(=O)c1[nH]c(C)c(C(C)=O)c1C", "lipid storage change, negative = inhibition": "inconclusive: -31%"}, {"smiles": "COCC(C)N=C1NN=C(c2c[nH]c3ccccc23)CS1", "note": "(stereo not drawn)", "lipid storage change, negative = inhibition": "inconclusive: 27.7%"}, {"smiles": "O=c1cc(CSc2nnc(NC3CCCCC3)s2)nc2sccn12", "lipid storage change, negative = inhibition": "inconclusive: 83.1%"}, {"smiles": "O=C(Nc1ccc(Cl)cc1)N1CCOC12CCCCC2", "lipid storage change, negative = inhibition": "inconclusive: 13.6%"}, {"smiles": "O=C(CN(c1cccc(Cl)c1)S(=O)(=O)c1ccc(Cl)cc1)NCc1ccccn1", "lipid storage change, negative = inhibition": "inconclusive: -66.8%"}, {"smiles": "COc1ccc(-c2cc3ccccc3oc2=O)cc1NC(=S)NC(=O)c1ccc2c(c1)OCCO2", "lipid storage change, negative = inhibition": "inconclusive: -42.1%"}, {"smiles": "O=C(C1CCCN(S(=O)(=O)c2cccc3nsnc23)C1)N1CCc2ccccc2C1", "note": "(stereo not drawn)", "lipid storage change, negative = inhibition": "inconclusive: 33%"}, {"smiles": "COc1cc(C2=NOC(C(=O)N3CCN(c4ccc(F)cc4)CC3)C2)cc(OC)c1OC", "note": "(stereo not drawn)", "lipid storage change, negative = inhibition": "inconclusive: -48.4%"}, {"smiles": "CC(NC(=O)CN(C)CC(=O)Nc1cccc(F)c1)c1ccccc1", "note": "(stereo not drawn)", "Potency": "inconclusive: 23.1 µM [falling, single point]"}, {"smiles": "O=C(c1ccccc1Oc1ccc([N+](=O)[O-])cc1)N1CCOCC1", "lipid storage change, negative = inhibition": "inconclusive: 25.4%"}, {"smiles": "COc1cc(C(=O)NCC(=O)N/N=C/c2ccc(OC(=O)c3ccco3)cc2)cc(OC)c1OC", "lipid storage change, negative = inhibition": "inconclusive: -15.4%"}, {"smiles": "CCCCn1c(N)c(N(CC(C)C)C(=O)C2CCN(S(=O)(=O)c3ccc(F)cc3)CC2)c(=O)[nH]c1=O", "Potency": "inconclusive: 29.1 µM [activator, single point]"}, {"smiles": "O=C(NC1CCCCC1)C1CC(=O)N(c2ccccc2)C1", "note": "(stereo not drawn)", "Potency": "inconclusive: 4.11 µM [activator, single point]"}, {"smiles": "Nc1c(C(=O)NCc2ccc3c(c2)OCO3)nnn1CC(=O)Nc1ccc(Br)cc1", "Potency": "inconclusive: 6.51 µM [falling, single point]"}, {"smiles": "Cc1ccc(C)c(NS(=O)(=O)c2c(C)ccc3nsnc23)c1", "lipid storage change, negative = inhibition": "inconclusive: 12.7%"}, {"smiles": "CC(OC(=O)CC(NC(=O)c1ccccc1Cl)c1ccccc1)C(=O)Nc1cccc(Cl)c1Cl", "note": "(stereo not drawn)", "Potency": "inconclusive: 2.59 µM [rising, partial curve]"}, {"smiles": "COc1cccc(-c2nnc(NC(=O)c3ccc(Cl)s3)o2)c1", "lipid storage change, negative = inhibition": "inconclusive: -34.9%"}, {"smiles": "C/C=C/c1ccc(OCCCN2C(=O)NC(C)(C)C2=O)c(OC)c1", "lipid storage change, negative = inhibition": "inconclusive: 14%"}, {"smiles": "CC(C)(C)OC(=O)NOCC(=O)N(Cc1ccccc1)CC(O)COc1ccccc1", "note": "(stereo not drawn)", "Potency": "active: 7.31 µM"}, {"smiles": "COc1ccc(C)cc1NS(=O)(=O)c1ccc(NC(=O)CN(c2cc([N+](=O)[O-])ccc2C)S(C)(=O)=O)cc1", "Potency": "inconclusive: 16.4 µM [falling, single point]"}, {"smiles": "Cc1ccc(C(O)c2ccc(-n3ccnc3)cc2)cc1", "note": "(stereo not drawn)", "lipid storage change, negative = inhibition": "inconclusive: 12.2%"}, {"smiles": "COc1ccc(C(=O)NNC(=O)CN2CCC(n3nnc4cc(F)ccc43)CC2)cc1", "lipid storage change, negative = inhibition": "inconclusive: 24.1%"}, {"smiles": "CC(=O)N1CCN(S(=O)(=O)c2cccc(C(=O)Nc3ccc4c(c3)CCC4)c2)CC1", "lipid storage change, negative = inhibition": "inconclusive: -21.7%"}, {"smiles": "Cc1cc(OCC(=O)NCc2ccccn2)c2c(C)c(Cc3ccccc3)c(=O)oc2c1", "Potency": "inconclusive: 1.84 µM [falling, full curve, poor fit]"}, {"smiles": "CC(=O)Nc1ccc(S(=O)(=O)Nc2nc3ccccc3s2)cc1", "Potency": "active: 23.1 µM"}, {"smiles": "CC(=O)N1[C@H](Cc2ccccc2)C=C[C@]1(C)C(=O)NCCN1CCOCC1", "lipid storage change, negative = inhibition": "inconclusive: 47.5%"}, {"smiles": "CCc1ccc(-c2cc(C)no2)cc1S(=O)(=O)Nc1ccc(Cl)cn1", "Potency": "inconclusive: 5.8 µM [falling, single point]"}]}]}
